Experimental data published in patent US12485191B2, “Radiopharmaceuticals and methods of use thereof” (BOARD OF REGENTS OF THE UNIVERSITY OF NEBRASKA, priority 2017, dated 2025).
Some entries share one result that the patent states for a list of compounds. At least one peptide structure holds a part that was inferred or is arguable (an end, a ring closure or a residue).

Test system: HT-29 cells
Assay: Cell internalization study (surface bound vs internalized)
Assay type: cell-based, human
Conditions: at 2 hours

Compound	surface bound, fold higher than that of a previous NTSR1 ligand
Cc1cc(C)c(C(=O)OCC(=O)[C@H](CCCCNC(=O)COCCOCCOCCn2cc(C[C@H](NC(=O)CN3CCN(CC(=O)O)CCN(CC(=O)O)CCN(CC(=O)O)CC3)C(=O)NCCC(=O)N[C@@H](CCCCN)C(=O)N3CCC[C@H]3C(=O)N(C)[C@@H](CCCNC(=N)N)C(=O)N[C@@H](CCCNC(=N)N)C(=O)N3CCC[C@H]3C(=O)N[C@@H](Cc3c(C)cc(O)cc3C)C(=O)N[C@H](C(=O)N[C@@H](CC(C)C)C(=O)O)C(C)(C)C)nn2)NC(=O)[C@H](Cc2ccccc2)NC(=O)OCc2ccccc2)c(C)c1 [Compound 2c]	4-5 fold
Cc1cc(C)c(C(=O)OCC(=O)[C@H](CCCCNC(=O)CNC(=O)[C@@H](CO)NC(=O)[C@@H](CO)NC(=O)[C@@H](CO)NC(=O)Cn2cc(C[C@H](NC(=O)CN3CCN(CC(=O)O)CCN(CC(=O)O)CCN(CC(=O)O)CC3)C(=O)N[C@H](CO)C(=O)N[C@H](CO)C(=O)N[C@H](CO)C(=O)N[C@@H](CCCCN)C(=O)N3CCC[C@H]3C(=O)N(C)[C@@H](CCCNC(=N)N)C(=O)N[C@@H](CCCNC(=N)N)C(=O)N3CCC[C@H]3C(=O)N[C@@H](Cc3c(C)cc(O)cc3C)C(=O)N[C@H](C(=O)N[C@@H](CC(C)C)C(=O)O)C(C)(C)C)nn2)NC(=O)[C@H](Cc2ccccc2)NC(=O)OCc2ccccc2)c(C)c1 [Compound 2f]	4-5 fold
